This note sets out measurements from PubChem BioAssay AID445 (National Center for Advancing Translational Sciences (NCATS), 2006).

For orientation: AC50 means the concentration giving half of the maximal activity seen.

Some of the results follow. Further columns of the screen follow, without active or inactive calls. The list favours compounds with an active or inconclusive main result. The note in brackets gives the kind of curve behind each potency; many fits are weak.

The nature of the assay: IkB Signaling. The note with it: ABC-DLBCL IkBa-CBG/CBR dual luciferase ratio (green luciferase fused to IkBa over red control in OCI-Ly3 lymphoma cells), 4 h. From the text: NIH Molecular Libraries Screening Centers Network [MLSCN]
NIH Chemical Genomics Center [NCGC]
Nuclear factor kappa-B (NF-kappa-B) plays an important role in normal B cell development and survival. Diffuse large B cell lymphoma (DLBCL) is the most commonly observed type of non-Hodgkin's lymphoma. Gene expression analysis has identified an activated B cell-like subtype of DLBCL (ABC-DLBCL) which expresses known NF-kappa-B target genes. […] However, targets upstream of IKK have been largely unexplored and so nodes upstream of IKK in the NF-kappa-B pathway remain untested due to the lack of chemical probes.
A cell-sensor assay for I-kappa-B-alpha stabilization was developed with NIH investigator Dr. R. Eric Davis in Dr. Louis M. Staudt's laboratory. The assay uses green (CBG68) and red (CBR) emitting beetle luciferases [Chroma-Glo(TM) developed by Promega Corp.] where the green luciferase is fused to I-kappa-B-alpha and the red luciferase is present in its native state. Both luciferase genes are stably present in the OCI-Ly3 human ABC DLBCL cell line, but their expression is under the control of tetracycline-inducible promoters. Following the addition of doxycycline to induce expression of the luciferases, the green luminescence in control cultures rises only slowly because the CBG fusion partner I-kappa-B-alpha is targeted by IKK activity for rapid degradation. In contrast, green luminescence rises rapidly in the presence of proteasome inhibitors or IKK inhibitors. The rise in red luminescence of CBR is not affected by proteasome or IKK inhibitors, and serves as normalization for cell number and nonspecific effects. Compounds were screened as a concentration-titration series that ranged from 57 uM to 0.7 nM.
NCGC Assay Protocol Summary:
Cells were seeded in 1536-well plates at 5000 cells/3ul in IMDM medium containing 0.5% FBS, w/o phenol red, L-glutamine, 25 mM HEPES, 3 mg/ml sodium bicarbonate. After centrifugation for 1 min. at 1000 rpm, 23 nl of compounds or DMSO were delivered to each well using a pin tool. Then 1ul 80ng/ml doxycycline was dispensed into white solid 1536-well plates and the plates were incubated at 37C/5% C02 in a cell incubator for 4 hrs. Then 4 ul Chroma-Glo luminescent substrate mix (Promega) was added to each well. The plate was incubated at R.T. for 10-15 min. The plates were measured on a ViewLux plate reader for green luminescence (540/20 nm filter) and red luminescence (618/8 nm filter). The green and red luminescent signals were corrected for red and green luminescence filter overlap using previously determined filter calibration constants (determined using the procedure outlined in the Promega Technical Manual). The %Activity was determined from the ratio of corrected green/red luminescent values. Green luminescent and ratio %Activity was determined by normalizing to the difference in signal between basal cells (0% Activity) and cells incubated with 10 uM of the proteasome inhibitor MG-132 (100% Activity). Red luminescent %Activity was normalized to the difference between red luminesence in basal cells (0%Activity) and zero luminescence (-100% Activity).
Concentration-response curves were fitted to the signals arising from the green luminescence (I-kappa-B-alpha-luciferase fusion; IkB-luc) and the red luminescence (unfused luciferase; luc) as well as the calculated ratio. The concentration-effect curves were then classified based on curve quality (r2), response magnitude and degree of measured activity. Compounds were then categorized based on their concentration-response curves for all three datasets (Ikb-luc, luc and ratio).
Keywords: IKK, I-kappa-B, IkB, IkBa, cytotoxicity, luminescence, MLSMR, MLSCN, NIH Roadmap, qHTS, NCGC

[1] abbreviates: measured here: control luc red channel unless noted.

In the case of `COc1ccccc1-c1nn(CCC(=O)Nc2ccccc2)c2nc(C)cc(C)c12`, under setting [1], the concentration at half-maximal activity (AC50) is 10 µM [falling, partial curve].

In the case of `Cc1ccc2nc(-c3ccc(C)s3)c(Nc3ccc4c(c3)OCCO4)n2c1`, the AC50 under setting [1] was 15.8 µM [falling, partial curve].

On to `O=C(NCc1ccccc1Cl)c1ccc2c(c1)NC(=O)C(CS(=O)(=O)Cc1ccc(Cl)cc1)N2` (stereo not drawn), for which the AC50 under setting [1] was 20 µM [falling, partial curve].

In the case of `Cc1ccc2[nH]cc(C(c3ccccc3)c3ccc(Cl)s3)c2c1` (stereo not drawn), the concentration at half-maximal activity (AC50) under setting [1] was 3.16 µM [falling, partial curve].

With `Cc1cccc2sc(N(Cc3cccnc3)C(=O)c3ccco3)nc12`, the AC50 under setting [1] was 25.1 µM [falling, partial curve].

As for `O=C(NCc1ccco1)c1ccc(S(=O)(=O)N2CCCc3ccccc32)cc1`, the concentration at half-maximal activity (AC50) under setting [1] was 15.8 µM [falling, partial curve].

`CCOc1ccc(NC(=O)CN2C(=O)c3ccccc3Sc3ccc(C(=O)OC)cc32)cc1`: the AC50 under setting [1] is 2.51 µM [falling, partial curve].

Consider `Cc1cc(C)cc(-n2c(SCC(=O)NCc3ccc(F)cc3)nc3c([nH]c4ccccc43)c2=O)c1`, for which the AC50 under setting [1] is 1.58 µM [rising, full curve].

On to `Cc1ccc2c(c1)c(=O)c1ccccc1n2CCCC(=O)Nc1ccc(Cl)c(Cl)c1`, for which the half-maximal activity concentration (AC50) under setting [1] was 7.94 µM [falling, full curve].

With `COc1cc(NC(=O)CSc2nc(-c3ccccc3)no2)cc(OC)c1`, the half-maximal activity concentration (AC50) under setting [1] is 5.01 µM [falling, partial curve].

For `COc1cccc(NC(=O)CN2C(=O)CC(c3ccco3)Sc3ccccc32)c1` (stereo not drawn), the concentration at half-maximal activity (AC50) under setting [1] is 31.6 µM [falling, partial curve].

As to `COC(=O)c1sc(-c2ccccc2)cc1NC(=O)c1cccc(Cl)c1`, the AC50 under setting [1] is 0.0501 µM [falling, full curve, poor fit].

Take `Cc1cccc(C)c1NC(=O)C(=O)NCC(c1cccnc1)N1CCc2ccccc21` (stereo not drawn): under setting [1], the concentration at half-maximal activity (AC50) was 1.58 µM [falling, partial curve].

`CN(C)c1ccc(C(=C2C=CC(=[N+](C)C)C=C2)c2ccc(N(C)C)cc2)cc1`: the concentration at half-maximal activity (AC50) (measured here: IkB-luc green channel) was 20 µM [falling, full curve, poor fit] and the AC50 (measured here: control luc red channel) is 0.631 µM [falling, full curve].

Consider `O=C(CSc1nc2c([nH]c3ccccc32)c(=O)n1-c1ccc(Cl)cc1)NC1CCCCC1`, for which the half-maximal activity concentration (AC50) under setting [1] was 0.316 µM [falling, full curve, poor fit].

For the compound `CSc1nc(C)c2cc(C)oc2n1`, the AC50 under setting [1] is 126 nM [rising, full curve, poor fit] [measured here: IkB-luc green channel].

As to `CCc1ccc(NC(=O)N2CCN(Cc3nc4ccc(C)cc4o3)CC2)cc1`, under setting [1], the concentration at half-maximal activity (AC50) is 25.1 µM [falling, single point].
